Experimental data: paper PMC9103898

Experiments:
[1] = target: T1, Lsi1-YFP-N (rice (Dular cDNA)) (UniProt Q6Z2T3); assay: split reporter; BiFC with eYFP halves (p2300-2YN, p2300-2YC) in Agrobacterium-infiltrated tobacco leaves, confocal microscopy after 48 h
T1 sequence: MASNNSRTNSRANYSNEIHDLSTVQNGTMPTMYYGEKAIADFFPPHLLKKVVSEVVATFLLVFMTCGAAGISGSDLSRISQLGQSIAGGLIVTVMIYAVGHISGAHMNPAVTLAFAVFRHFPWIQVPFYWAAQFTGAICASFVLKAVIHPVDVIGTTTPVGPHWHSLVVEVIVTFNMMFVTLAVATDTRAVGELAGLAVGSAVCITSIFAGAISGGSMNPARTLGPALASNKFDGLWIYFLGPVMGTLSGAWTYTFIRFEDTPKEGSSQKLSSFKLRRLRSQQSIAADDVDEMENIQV

GST::14-3-3f (rice) = target: T2, GST::14-3-3f (rice) (UniProt Q06967); assay: pull-down; GST::14-3-3f bound to glutathione sepharose incubated with the His fusion protein at low temperature, rinsed with 1 x PBS, eluted with glutathione in Tris-HCl pH 8.0, Western blot with His and GST antibodies
T2 sequence: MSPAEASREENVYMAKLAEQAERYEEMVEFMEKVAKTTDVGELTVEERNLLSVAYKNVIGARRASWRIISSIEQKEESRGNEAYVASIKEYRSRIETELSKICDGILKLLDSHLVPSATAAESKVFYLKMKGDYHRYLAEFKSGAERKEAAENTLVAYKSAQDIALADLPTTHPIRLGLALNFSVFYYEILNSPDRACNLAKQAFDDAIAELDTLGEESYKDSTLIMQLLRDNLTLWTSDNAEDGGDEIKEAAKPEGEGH

[2] = target: T3, 14-3-3f-YFP-N (rice (Dular cDNA)) (UniProt Q06967); assay: split reporter; BiFC with eYFP halves (p2300-2YN, p2300-2YC) in Agrobacterium-infiltrated tobacco leaves, confocal microscopy after 48 h
T3 sequence: T2 sequence

| binding [1] | Substance | other results |
| --- | --- | --- |
| binds | ATP-α-YFP-C (rice (Dular cDNA)) |  |
|  | His::CIPK (rice) | binding (GST::14-3-3f (rice)): binds |
| binds | ATP-β-YFP-C (rice (Dular cDNA)) |  |
|  | CIPK-YFP-C (CBL interacting protein kinase) (rice (Dular cDNA)) | binding [2]: binds |

Results are given in words; binding and its absence hold for the method and conditions named. Binding seen in cells or lysates may run through a third protein. Binding can be weak; no strength is given. Sequences can lack the tags named with a protein.
